The list shows a part of the results.

Amino acid sequences for entries named in this document (tags omitted). A change or cut given only in a name is not applied to a line headed by its entry.
UniProt Q15053: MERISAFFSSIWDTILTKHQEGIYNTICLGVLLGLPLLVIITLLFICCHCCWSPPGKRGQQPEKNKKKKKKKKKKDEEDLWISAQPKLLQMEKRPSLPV
UniProt Q8IXQ5, whole entry, looked up: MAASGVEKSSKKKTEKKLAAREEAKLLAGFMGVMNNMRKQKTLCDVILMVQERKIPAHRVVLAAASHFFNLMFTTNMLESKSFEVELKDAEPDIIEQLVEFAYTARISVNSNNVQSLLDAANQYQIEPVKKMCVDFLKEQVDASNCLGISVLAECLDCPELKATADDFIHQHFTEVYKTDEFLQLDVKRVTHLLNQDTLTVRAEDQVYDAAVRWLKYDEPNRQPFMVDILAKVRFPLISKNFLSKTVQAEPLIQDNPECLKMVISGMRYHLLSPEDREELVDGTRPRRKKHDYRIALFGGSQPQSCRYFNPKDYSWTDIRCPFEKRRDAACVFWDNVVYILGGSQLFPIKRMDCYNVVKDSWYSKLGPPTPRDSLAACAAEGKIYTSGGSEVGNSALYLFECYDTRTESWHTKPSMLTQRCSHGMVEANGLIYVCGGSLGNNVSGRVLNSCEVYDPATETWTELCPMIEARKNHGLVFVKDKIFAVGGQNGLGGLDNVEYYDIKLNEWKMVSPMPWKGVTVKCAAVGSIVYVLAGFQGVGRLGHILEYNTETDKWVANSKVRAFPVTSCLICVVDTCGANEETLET
UniProt O00180: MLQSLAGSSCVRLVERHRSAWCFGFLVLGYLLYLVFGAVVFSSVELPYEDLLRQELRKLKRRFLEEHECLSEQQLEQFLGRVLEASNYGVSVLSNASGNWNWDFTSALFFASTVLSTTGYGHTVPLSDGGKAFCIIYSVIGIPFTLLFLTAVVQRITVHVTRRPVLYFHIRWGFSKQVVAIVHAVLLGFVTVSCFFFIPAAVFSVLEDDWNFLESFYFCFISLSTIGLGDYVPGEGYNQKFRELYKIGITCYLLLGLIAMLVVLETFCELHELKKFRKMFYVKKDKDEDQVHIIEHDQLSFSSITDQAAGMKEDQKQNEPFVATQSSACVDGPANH
UniProt Q8NAX2: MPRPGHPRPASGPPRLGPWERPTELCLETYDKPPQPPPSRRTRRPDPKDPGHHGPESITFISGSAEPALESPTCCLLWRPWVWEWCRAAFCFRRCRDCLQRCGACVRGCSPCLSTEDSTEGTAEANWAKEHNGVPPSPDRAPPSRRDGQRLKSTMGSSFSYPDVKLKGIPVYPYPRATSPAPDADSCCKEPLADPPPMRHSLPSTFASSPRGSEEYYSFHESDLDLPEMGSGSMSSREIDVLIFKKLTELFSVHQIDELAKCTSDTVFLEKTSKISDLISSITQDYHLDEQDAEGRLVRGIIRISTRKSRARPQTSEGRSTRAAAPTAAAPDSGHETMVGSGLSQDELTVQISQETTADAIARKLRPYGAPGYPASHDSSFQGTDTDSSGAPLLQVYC
UniProt Q9BW19: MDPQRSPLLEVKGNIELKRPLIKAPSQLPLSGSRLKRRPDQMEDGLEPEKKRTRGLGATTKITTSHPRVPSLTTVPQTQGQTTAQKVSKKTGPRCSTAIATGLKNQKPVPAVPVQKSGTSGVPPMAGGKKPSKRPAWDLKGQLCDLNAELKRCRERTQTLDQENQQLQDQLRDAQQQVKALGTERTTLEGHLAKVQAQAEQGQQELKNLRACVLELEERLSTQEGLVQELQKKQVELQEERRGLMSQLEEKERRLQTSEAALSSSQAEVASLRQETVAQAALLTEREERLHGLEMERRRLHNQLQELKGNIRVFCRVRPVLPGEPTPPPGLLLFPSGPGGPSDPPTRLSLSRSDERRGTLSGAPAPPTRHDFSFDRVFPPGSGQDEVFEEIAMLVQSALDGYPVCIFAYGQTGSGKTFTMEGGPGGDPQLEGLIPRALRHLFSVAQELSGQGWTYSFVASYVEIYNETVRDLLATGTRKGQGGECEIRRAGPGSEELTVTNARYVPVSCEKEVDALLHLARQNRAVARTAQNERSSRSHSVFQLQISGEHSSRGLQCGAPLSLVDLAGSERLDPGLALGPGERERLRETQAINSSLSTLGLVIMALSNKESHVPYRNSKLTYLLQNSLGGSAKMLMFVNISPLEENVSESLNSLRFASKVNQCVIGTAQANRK
UniProt O95239: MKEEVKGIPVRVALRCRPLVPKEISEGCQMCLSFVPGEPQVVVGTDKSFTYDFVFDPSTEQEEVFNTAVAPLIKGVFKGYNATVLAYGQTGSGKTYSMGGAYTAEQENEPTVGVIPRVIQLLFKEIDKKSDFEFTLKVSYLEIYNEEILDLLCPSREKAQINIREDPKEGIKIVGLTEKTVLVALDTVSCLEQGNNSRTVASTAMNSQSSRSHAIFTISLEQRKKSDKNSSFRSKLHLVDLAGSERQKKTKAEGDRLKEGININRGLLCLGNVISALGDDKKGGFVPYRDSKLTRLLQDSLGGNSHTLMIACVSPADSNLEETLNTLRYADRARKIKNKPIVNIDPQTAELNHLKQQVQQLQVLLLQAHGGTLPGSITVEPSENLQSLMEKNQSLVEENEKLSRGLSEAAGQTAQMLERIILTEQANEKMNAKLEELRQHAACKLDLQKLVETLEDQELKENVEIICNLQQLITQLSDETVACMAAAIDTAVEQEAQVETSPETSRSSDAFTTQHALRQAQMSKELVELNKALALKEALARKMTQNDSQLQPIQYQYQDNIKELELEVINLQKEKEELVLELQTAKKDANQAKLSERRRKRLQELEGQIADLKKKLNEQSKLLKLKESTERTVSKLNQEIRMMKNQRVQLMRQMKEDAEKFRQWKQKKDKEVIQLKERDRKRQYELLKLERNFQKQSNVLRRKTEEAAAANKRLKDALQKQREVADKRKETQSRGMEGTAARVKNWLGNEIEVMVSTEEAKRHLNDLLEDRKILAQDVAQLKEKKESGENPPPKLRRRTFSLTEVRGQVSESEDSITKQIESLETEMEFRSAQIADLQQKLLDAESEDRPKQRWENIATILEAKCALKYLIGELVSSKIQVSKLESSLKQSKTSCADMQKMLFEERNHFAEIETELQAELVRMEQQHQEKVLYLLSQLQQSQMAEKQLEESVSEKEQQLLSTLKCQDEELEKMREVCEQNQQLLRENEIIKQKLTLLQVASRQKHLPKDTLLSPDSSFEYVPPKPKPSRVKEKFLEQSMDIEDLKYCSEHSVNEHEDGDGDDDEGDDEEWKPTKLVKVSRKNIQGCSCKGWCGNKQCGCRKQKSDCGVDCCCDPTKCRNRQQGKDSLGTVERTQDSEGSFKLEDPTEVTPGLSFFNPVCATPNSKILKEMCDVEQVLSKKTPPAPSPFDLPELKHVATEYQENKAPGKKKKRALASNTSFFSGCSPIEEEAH
UniProt Q9BVG8: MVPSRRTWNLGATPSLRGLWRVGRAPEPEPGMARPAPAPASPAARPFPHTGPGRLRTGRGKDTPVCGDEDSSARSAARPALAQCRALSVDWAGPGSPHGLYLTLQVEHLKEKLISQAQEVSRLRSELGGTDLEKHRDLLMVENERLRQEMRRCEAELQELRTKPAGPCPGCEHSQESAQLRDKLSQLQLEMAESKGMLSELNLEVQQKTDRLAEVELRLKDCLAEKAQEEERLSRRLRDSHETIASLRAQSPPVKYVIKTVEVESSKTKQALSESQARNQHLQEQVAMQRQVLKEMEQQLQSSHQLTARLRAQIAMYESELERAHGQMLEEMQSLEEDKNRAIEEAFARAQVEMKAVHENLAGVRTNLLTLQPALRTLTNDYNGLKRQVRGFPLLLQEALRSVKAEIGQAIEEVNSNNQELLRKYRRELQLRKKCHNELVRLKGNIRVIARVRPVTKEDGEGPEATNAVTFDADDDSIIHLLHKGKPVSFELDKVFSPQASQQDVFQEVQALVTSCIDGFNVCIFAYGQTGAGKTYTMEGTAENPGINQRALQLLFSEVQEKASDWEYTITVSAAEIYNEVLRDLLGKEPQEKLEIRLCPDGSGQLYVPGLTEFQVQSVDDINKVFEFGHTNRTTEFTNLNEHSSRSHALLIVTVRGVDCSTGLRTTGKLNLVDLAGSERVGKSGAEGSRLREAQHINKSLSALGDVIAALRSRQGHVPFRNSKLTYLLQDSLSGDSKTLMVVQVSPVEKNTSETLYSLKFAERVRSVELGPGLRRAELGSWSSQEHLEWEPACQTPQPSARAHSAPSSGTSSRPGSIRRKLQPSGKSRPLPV
UniProt Q9H910: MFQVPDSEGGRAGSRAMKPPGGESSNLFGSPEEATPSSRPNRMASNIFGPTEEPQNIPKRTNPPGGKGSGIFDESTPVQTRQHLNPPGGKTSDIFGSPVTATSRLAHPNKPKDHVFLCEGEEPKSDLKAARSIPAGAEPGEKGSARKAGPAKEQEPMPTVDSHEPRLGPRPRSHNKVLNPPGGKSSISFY
UniProt Q719H9: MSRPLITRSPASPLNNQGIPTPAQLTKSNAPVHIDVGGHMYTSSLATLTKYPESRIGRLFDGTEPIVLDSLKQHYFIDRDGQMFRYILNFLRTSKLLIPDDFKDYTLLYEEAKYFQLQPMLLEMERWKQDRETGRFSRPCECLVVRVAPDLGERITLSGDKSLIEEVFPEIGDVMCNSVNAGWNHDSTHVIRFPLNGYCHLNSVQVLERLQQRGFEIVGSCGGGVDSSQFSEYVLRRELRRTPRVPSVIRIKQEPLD
UniProt O60333: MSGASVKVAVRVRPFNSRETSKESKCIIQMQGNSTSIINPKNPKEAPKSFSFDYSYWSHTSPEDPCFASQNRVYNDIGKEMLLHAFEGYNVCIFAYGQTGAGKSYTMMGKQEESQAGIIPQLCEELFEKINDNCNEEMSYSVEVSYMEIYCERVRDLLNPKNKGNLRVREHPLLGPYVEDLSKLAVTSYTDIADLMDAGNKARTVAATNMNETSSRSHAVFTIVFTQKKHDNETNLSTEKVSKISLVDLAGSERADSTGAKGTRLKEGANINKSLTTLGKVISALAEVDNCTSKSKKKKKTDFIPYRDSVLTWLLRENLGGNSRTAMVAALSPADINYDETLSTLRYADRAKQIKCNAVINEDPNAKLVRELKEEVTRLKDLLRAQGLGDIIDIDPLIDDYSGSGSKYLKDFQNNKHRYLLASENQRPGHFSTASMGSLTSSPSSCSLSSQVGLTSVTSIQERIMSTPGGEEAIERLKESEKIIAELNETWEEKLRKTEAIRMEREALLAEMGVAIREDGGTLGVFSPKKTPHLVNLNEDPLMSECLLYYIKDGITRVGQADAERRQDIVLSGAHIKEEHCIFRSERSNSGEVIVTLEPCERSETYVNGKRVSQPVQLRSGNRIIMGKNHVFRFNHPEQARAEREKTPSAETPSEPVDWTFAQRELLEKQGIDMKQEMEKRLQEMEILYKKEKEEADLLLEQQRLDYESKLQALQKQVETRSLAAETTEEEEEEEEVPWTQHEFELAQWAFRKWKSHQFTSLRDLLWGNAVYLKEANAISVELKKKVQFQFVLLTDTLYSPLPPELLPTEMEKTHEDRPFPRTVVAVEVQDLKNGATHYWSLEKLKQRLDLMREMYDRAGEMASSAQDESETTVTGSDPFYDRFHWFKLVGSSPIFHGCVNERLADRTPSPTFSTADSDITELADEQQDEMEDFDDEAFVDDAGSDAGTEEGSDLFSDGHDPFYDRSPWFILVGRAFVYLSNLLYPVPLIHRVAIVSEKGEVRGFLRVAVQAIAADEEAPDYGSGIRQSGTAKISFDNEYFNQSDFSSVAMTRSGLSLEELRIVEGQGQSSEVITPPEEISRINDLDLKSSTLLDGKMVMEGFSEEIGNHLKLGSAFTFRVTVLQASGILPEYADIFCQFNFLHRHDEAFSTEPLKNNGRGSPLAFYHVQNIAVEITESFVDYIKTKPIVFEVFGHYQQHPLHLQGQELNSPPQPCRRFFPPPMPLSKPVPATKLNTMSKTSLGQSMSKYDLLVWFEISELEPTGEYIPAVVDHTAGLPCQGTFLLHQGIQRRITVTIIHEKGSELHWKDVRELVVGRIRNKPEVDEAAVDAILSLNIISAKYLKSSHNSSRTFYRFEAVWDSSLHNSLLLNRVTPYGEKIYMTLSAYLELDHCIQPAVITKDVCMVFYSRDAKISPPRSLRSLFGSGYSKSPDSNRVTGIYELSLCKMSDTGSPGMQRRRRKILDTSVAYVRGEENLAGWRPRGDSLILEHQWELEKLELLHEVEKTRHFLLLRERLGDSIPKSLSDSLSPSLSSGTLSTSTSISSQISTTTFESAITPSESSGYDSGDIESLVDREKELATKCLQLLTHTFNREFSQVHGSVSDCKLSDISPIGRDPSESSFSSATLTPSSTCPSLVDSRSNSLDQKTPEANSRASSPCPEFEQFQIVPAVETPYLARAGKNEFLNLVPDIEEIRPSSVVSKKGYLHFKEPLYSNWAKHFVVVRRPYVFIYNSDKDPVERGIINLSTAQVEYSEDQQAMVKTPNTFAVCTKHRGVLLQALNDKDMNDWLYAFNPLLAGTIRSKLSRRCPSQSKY

We go through 31 targets from the supplement of paper PMC10849652.

Compound in the first assay: CC1=C(SC2=C1C(=N[C@H](C3=NN=C(N32)C)CC(=O)N)C4=CC=C(C=C4)Cl)C
The experiment in a line: log2 fold change, soluble protein after heating vs DMSO (PISA); higher = thermal stabilisation; K562 cells, 10 uM, 30 min; active = over 0.2 and 3.5 SD of the protein, either way, in both replicates (recomputed). Put shortly:
(§1)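 Soluble protein was quantified by TMTpro 16plex LC-MS/MS after channel sums were equalised. It was obtained as the supernatant after 21,000xg for 90 min from pooled aliquots of K562 cells (2×10^6 cells/mL, 10 μM compound, 30 min) heated for 3 min across 48°C-58°C and extracted in PBS with 0.5% NP-40 at 4°C. Thermal stability values are relative to control samples and come from duplicates. They are given as log2 fold changes.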
For the target KIAA0040 (UniProt Q15053), the log2 fold change is inactive: 0.037.

Turning to KLHL7 isoform 3 (UniProt Q8IXQ5), the log2 fold change was inactive: 0.159.

With KDM3A (UniProt Q9Y4C1), the log2 fold change was inactive: 0.058.

Consider JOSD1 (UniProt Q15040), for which the log2 fold change was inactive: 0.012.

On to KDM6A (UniProt O15550), for which the log2 fold change was inactive: -0.083.

Take KALRN (UniProt O60229): the log2 fold change is inactive: 0.028.

For JUN (UniProt P05412), the log2 fold change was inactive: 0.195.

For KIZ (UniProt Q2M2Z5), the log2 fold change is inactive: -0.082.

Regarding KMT2E (UniProt Q8IZD2), the log2 fold change is inactive: 0.028.

In the case of KNL1 (UniProt Q8NG31), the log2 fold change was inactive: 0.216.

Turning to KCNK1 (UniProt O00180), the log2 fold change is inactive: -0.263.

In the case of KIF16B isoform 2 (UniProt Q96L93), the log2 fold change was inactive: -0.061.

In the case of KDF1 (UniProt Q8NAX2), the log2 fold change was inactive: 0.08.

For KIFC1 (UniProt Q9BW19), the log2 fold change is inactive: -0.1.

KIF1C (UniProt O43896): the log2 fold change is inactive: 0.02.

As to KCNK5 (UniProt O95279), the log2 fold change is inactive: 0.114.

Consider KIF13A isoform 4 (UniProt Q9H1H9), for which the log2 fold change was inactive: 0.031.

Turning to KMT2A isoform 3 (UniProt Q03164), the log2 fold change is inactive: 0.159.

Consider KIF4A (UniProt O95239), for which the log2 fold change is inactive: -0.051.

KATNBL1 (UniProt Q9H079): the log2 fold change was inactive: 0.046.

Compound in a further assay: CC1=C2C(=CC=C1)N=C(N(C2=O)C3=CC=CC=C3C)CN4C=NC5=C(N=CN=C54)N
The description is as above. An outline of the steps: as §1
For KIAA0040 (UniProt Q15053), the log2 fold change was inactive: 0.12.

Consider KIFC3 isoform 6 (UniProt Q9BVG8), for which the log2 fold change is inactive: 0.128.

On to KIDINS220 isoform 2 (UniProt Q9ULH0), for which the log2 fold change was inactive: 0.221.

For the target KLHL20 (UniProt Q9Y2M5), the log2 fold change was inactive: -0.048.

Turning to JMJD8 (UniProt Q96S16), the log2 fold change was inactive: 0.114.

For the target KDM6A (UniProt O15550), the log2 fold change was inactive: 0.147.

Turning to KLF1 (UniProt Q13351), the log2 fold change was inactive: -0.065.

With KAT6B (UniProt Q8WYB5), the log2 fold change was inactive: 0.025.

As to JPT2 isoform 2 (UniProt Q9H910), the log2 fold change is inactive: -0.08.

As to KCTD1 (UniProt Q719H9), the log2 fold change was inactive: 0.156.

For the target KLF16 (UniProt Q9BXK1), the log2 fold change is inactive: -0.302.

With KIF1B isoform 3 (UniProt O60333), the log2 fold change was inactive: -0.246.

As to KAT7 (UniProt O95251), the log2 fold change was inactive: 0.144.

For the target KIF4A (UniProt O95239), the log2 fold change was inactive: 0.057.

For the target KATNBL1 (UniProt Q9H079), the log2 fold change is inactive: -0.013.
